{
  "sequences": {"note": "The chains behind the UniProt entries cited, without tags or fusion partners. Residues count along the entry.", "UniProt Q9NZQ7, residues 19-290": "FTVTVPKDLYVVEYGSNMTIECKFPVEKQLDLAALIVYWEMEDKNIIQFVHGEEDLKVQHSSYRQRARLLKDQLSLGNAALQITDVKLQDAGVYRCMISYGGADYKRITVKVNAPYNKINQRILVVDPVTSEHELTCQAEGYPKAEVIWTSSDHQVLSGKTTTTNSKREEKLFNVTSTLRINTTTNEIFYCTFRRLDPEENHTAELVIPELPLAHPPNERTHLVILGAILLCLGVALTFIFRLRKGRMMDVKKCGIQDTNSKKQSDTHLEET", "UniProt P02652, residues 19-100": "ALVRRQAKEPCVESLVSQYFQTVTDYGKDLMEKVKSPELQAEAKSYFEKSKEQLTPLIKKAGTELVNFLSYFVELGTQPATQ"},
  "source": "paper PMC11183041",
  "target": "programmed death ligand 1 (PD-L1) (UniProt Q9NZQ7)",
  "experiment": "co-IP; in HEK293T cells; legend: verified 'from both positive and negative aspects'; bait and detection not told",
  "note": "No constants are given. Whether binding was seen depends on the method and setting. In cells and extracts the contact can be indirect. Some results given as binding are weak or reduced against the parent protein; the word gives no strength.",
  "data": [
    {"substance": "APOA2 (from UniProt P02652 19-100)", "values": [
      {"measurement": "binding", "result": "binds"}
    ]}
  ]
}
